For assay [1], the target named is Recombinant human NRP-1-Fc fusion protein, a1a2 domains (human) (UniProt O14786). The experiment in a line: BLI Octet QKe, antibody on AHC sensor, NRP-1-Fc fragment 500 nM.
Assay [2] concerns the target Recombinant human NRP-1-Fc fusion protein, a1 domain (human) (UniProt O14786). The assay is described as above.

By UniProt entry, the sequences of proteins in these tests, tags left out. Where a name states a change or a piece, a line headed by the entry shows the natural chain unless it says otherwise.
UniProt O14786: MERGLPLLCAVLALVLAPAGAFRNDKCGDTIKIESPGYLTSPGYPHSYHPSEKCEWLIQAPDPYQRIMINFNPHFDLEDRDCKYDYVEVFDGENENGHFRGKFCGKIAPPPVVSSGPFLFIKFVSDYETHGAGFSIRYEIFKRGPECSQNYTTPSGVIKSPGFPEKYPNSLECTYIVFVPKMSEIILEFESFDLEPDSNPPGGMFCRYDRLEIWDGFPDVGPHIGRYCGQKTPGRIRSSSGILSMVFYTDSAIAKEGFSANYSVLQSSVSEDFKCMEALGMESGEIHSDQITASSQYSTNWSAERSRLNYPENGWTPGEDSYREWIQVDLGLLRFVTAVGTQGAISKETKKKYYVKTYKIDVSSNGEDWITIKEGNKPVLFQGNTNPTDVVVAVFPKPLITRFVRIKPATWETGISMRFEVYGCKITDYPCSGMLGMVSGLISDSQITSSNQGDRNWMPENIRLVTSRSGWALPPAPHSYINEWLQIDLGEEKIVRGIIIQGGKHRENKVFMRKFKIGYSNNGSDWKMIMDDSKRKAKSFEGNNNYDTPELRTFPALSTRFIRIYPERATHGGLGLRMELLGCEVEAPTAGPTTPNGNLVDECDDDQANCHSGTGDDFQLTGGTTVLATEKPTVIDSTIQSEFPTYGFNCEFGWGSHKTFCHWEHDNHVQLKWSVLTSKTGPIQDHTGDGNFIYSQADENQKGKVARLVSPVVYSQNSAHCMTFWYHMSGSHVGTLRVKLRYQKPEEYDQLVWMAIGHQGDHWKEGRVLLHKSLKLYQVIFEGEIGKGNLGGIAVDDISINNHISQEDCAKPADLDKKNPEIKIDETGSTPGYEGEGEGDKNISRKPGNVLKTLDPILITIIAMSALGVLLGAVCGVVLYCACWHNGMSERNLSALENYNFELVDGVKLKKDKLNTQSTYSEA

No constants are given. Whether binding was seen depends on the method and setting. Some entries that bind do so weakly or less than the wild type.

B1: MAB1 (antibody, V domains shown)
VH: QVQLVQSGAGVKKPGASVKVSCKASGYTFRSYYMLWVRQAPGQGLEWMGIIDPSDGSTSYAQKFQGRVTMTRDTPTSTVYMELSSLRSEDTAVYYCARGARRITGYGMDVWGQGTTVTVSS
VL: DIQMTQSPSSVSASVGDRVTITCRASQGISSWLAWYQQKPGKAPKLLIYAASNLQSGVPSRFSGSGSGTDFTLTISSLQPEDFATYYCQQASVFPFTFGGGTKVEIK
In the case of B1, in assay [1], the binding entry was “binds”.

B2: MAB4 (antibody, V domains shown)
VH: QVQLVQSGAEVKKPGASVKVSCKASGYTFSRYYMHWVRQAPGQGLEWMGIINPLGGSTLYAQKFQGRVTMTRDTSTSTVYMELSSLRSEDTAVYYCARDLGYYGSGMHVWGQGTLVTVSS
VL: DIQMTQSPSSVSASVGDRVTITCRASQGISRWLAWYQQKPGKAPKLLIYAASSLQSGVPSRFSGSGSGTDFTLTISSLQPEDFATYYCQQANLLPFTFGGGTKVEIK
Turning to B2, the binding result in assay [2] and in assay [1] was “binds” throughout.

B3: MAB3 (antibody, V domains shown)
VH: QAQLVQSGAEVKKPGASVKVSCKASGYTFSRYYMHWVRQAPGQGLEWMGIINPLGGSTLYAQKFQGRVTMTRDTSTSTVYMELSSLRSEDTAVYYCARDLGYYGSGMHAWGQGTLVTVSS
VL: DIQMTQSPSSVSASVGDRVTITCRASQGISRWLAWYQQKPGKAPKLLIYAASSLQSGVPSRFSGSGSGTDFTLTISSLQPEDFATYYCQQANLLPFTFGGGTKVEIK
Turning to B3, the binding result in assay [2] and in assay [1] was “binds” each time.

B4: MAB2 (antibody, V domains shown)
VH: QVQLVQSGAEVKKPGASVKVSCKASGYTFRSYYMLWVRQAPGQGLEWMGIIDPSDGSTSYAQKFQGRVTMTRDASTSTVYMELSSLRSEDTAVYYCARGARRITGYGMDVWGQGTTVIVSS
VL: DIQMTQSPSSVSASVGDRVTITCRASQGISSWLAWYQQKPGKAPKLLIYAASNLQSGVPSRFSGSGSGTDFTLTISSLQPEDFATYYCQQASVFPFTFGGGTKVEIK
For the molecule B4, the binding result in assay [1] is given as “binds”.

B5: SEC3 (antibody, human IgG1, kappa, V domains shown)
VH: EVQLVESGGGLVQPGGSLRLSCAASGFTISGYGIHWVRQAPGKGLEWVAYIYPDSGYTDYADSVKGRFTISADTSKNTAYLQMNSLRAEDTAVYYCAREDFRNRRRLWYVMDYWGQGTLVTVSS
VL: DIQMTQSPSSLSASVGDRVTITCRASQDVSTAVAWYQQKPGKAPKLLIYSASFLYSGVPSRFSGSGSGTDFTLTISSLQPEDFATYYCQQAWAYLPTFGQGTKVEIKR
For the molecule B5, the binding result in assay [2] and in assay [1] was “binds” throughout.
